In patent US6310093A (priority 1998, dated 2001):
“And” between values parts separate entries of the source, which are not always exact repeats. Equal values may be shown once. Read-outs that look alike come from different tables or passages of the source. For at least one compound, name, drawing or mass did not settle the structure.

Molecular target: T1, glutaminase (brain membranes) (Rattus norvegicus, UniProt P13264)
T1 construct: Membranes are prepared by homogenization of brain tissue in 330 mM sucrose; from tissue; host or cells: rat brain, crude membranes (17000 G pellet)
T1 sequence (P13264 73-674 limits assumed): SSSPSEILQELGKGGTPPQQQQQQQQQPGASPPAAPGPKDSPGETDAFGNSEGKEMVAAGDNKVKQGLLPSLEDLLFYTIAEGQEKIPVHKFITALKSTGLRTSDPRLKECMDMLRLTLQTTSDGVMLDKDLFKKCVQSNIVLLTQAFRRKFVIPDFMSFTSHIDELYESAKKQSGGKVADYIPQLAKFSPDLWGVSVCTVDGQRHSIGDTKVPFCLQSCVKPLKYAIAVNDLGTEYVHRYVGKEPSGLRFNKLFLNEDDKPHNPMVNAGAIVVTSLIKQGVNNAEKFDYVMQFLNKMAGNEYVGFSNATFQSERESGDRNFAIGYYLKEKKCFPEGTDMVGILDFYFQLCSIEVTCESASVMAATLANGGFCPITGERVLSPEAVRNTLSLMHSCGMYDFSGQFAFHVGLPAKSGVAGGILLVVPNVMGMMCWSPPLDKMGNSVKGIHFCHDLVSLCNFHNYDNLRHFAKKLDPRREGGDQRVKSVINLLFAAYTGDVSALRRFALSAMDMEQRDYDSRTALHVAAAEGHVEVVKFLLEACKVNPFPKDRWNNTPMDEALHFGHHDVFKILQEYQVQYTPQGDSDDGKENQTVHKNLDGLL
Format: biochemical
Design: Glutaminase Activity: unit not given here
Conditions: for Glutaminase Activity: brain membranes

SMILES	glutaminase inhibition (in words)	Glutaminase Activity (300 µM)	Glutaminase Activity (1000 µM)	Glutaminase Activity (3000 µM)
CC(=O)NC(CCC(=O)O)C(=O)O (racemic) [N-acetyl-DL-glutamate]	moderate inhibition			
O=C(O)c1ccc([N+](=O)[O-])cc1[N+](=O)[O-] [2,4-dinitrobenzoate]		94 ± 2 and 98 ± 10	108 ± 0 and 95 ± 0.5	87 ± 1 and 108 ± 3
O=C(O)c1cc([N+](=O)[O-])cc([N+](=O)[O-])c1 [3,5-dinitrobenzoate]		97 ± 10 and 106 ± 5	109 ± 14 and 98 ± 7	71 ± 4 and 101 ± 5
NCC(=O)NC(CC(F)C(=O)O)C(=O)O (centres unmarked) [glycyl-4-fluoroglutamate, Glycyl-4-fluoroglutamate]	inhibited glutamine in both protected (BOC) and unprotected forms			
